{"source": "patent US20260193244A1", "about": "(Protego Biopharma, Inc., priority 2022, published 2026)", "system": "IRE1-XBP1s (HEK293 T-REx cells stably expressing the XBP1-RLuc splicing reporter)", "experiment": "IRE1-XBP1s activation Assay (XBP1-RLuc splicing reporter, luminescence relative to thapsigargin, with or without IRE1 inhibitor 4μ8C)", "format": "cell-based", "conditions": "compound 10 μM, 18 h, luminescence as percentage signal relative to thapsigargin (Tg) (500 nM, 18 h)", "description": "IRE1-XBP1s activation Assay: HEK293 T-REx cells stably expressing the XBP1-RLuc splicing reporter were treated with an IRE1-XBP1s activator provided herein (10 μM) in the presence or absence of the IRE1 active site inhibitor 4μ8C (32 μM) for 18 h. Luminescence was shown as the percentage signal relative to thapsigargin (Tg) (500 nM, 18 h).", "note": "The name of at least one read-out is uncertain.", "data": [{"smiles": "Cc1ccc(OCCN(C)C(=O)Cn2cc(NC(=O)C3COc4ccccc4O3)cn2)cc1", "note": "(stereo not shown) [Compound 62]", "values": [{"measurement": "Activity (IRE1-XBP1s Activation, % Tg)", "value": "+ (+: 30% =< % Tg < 50%)"}]}]}
